Experimental findings from the supplement of paper PMC7666118 are described below.

Sequences of proteins named here, by UniProt entry; tags and fusion partners are left off. A change or cut given only in a name is not applied to a line headed by its entry.
UniProt Q92616, whole entry: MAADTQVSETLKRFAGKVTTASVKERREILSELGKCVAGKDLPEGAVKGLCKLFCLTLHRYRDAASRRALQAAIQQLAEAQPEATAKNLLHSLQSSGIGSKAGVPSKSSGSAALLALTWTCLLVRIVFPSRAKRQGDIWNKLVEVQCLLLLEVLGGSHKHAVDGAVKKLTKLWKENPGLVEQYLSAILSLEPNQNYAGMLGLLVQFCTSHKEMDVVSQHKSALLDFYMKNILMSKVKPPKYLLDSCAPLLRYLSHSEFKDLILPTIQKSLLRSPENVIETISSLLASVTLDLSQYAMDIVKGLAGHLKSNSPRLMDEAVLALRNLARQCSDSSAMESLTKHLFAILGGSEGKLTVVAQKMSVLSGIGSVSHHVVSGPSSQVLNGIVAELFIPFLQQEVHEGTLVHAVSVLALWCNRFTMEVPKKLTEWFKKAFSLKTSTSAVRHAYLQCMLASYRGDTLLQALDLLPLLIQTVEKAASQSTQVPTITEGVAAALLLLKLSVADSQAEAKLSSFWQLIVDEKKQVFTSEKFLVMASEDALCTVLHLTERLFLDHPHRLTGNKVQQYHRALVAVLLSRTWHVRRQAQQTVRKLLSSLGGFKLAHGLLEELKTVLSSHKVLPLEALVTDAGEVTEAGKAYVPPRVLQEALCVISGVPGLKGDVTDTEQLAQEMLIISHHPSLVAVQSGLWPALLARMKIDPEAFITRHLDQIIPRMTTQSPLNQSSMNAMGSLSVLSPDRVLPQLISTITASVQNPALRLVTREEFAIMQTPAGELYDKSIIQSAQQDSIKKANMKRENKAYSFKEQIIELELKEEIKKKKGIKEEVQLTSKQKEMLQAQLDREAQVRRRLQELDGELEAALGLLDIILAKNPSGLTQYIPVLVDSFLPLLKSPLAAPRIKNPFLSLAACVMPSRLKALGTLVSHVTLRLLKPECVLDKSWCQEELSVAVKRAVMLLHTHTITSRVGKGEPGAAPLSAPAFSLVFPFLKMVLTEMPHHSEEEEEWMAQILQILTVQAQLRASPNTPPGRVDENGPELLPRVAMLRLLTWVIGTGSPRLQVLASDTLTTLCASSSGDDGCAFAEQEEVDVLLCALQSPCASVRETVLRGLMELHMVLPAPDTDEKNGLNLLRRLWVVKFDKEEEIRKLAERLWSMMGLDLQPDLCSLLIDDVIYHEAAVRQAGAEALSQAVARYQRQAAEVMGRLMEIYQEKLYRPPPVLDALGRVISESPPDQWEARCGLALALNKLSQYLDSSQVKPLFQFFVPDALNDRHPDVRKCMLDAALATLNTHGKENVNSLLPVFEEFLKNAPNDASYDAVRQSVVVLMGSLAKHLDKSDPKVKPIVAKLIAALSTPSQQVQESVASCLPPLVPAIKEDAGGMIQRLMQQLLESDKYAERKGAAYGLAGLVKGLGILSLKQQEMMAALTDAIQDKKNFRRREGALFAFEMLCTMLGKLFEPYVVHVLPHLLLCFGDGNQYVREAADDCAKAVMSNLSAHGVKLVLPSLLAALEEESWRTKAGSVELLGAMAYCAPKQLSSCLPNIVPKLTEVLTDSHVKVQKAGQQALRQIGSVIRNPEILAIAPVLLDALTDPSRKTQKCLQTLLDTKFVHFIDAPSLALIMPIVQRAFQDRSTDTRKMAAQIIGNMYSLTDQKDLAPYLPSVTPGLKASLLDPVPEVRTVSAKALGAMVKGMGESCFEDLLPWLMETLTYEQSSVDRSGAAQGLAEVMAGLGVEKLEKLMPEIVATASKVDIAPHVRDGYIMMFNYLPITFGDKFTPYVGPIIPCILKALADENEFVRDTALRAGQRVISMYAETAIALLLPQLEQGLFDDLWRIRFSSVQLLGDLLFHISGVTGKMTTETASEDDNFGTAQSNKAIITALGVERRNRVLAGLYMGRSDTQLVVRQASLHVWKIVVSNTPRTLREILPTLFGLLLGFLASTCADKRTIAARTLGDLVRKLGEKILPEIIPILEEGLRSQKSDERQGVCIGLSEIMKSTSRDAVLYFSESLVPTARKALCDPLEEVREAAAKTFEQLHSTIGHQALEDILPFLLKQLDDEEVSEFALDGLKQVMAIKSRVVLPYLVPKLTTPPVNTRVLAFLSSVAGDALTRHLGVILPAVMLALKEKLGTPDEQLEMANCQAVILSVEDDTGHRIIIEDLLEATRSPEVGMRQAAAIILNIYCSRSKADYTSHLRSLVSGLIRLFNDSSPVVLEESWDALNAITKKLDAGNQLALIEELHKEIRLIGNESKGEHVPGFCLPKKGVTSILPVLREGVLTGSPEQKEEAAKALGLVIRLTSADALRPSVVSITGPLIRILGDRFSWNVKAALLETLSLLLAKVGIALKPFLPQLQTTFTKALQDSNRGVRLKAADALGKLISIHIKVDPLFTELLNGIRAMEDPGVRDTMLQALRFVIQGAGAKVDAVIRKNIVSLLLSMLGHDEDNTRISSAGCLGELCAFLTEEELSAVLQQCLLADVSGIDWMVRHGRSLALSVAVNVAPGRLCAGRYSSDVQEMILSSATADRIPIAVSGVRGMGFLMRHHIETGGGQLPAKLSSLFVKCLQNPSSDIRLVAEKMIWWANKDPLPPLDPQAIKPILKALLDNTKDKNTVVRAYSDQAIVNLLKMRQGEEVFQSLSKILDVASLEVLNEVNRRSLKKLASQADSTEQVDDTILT
UniProt B7ZAQ6: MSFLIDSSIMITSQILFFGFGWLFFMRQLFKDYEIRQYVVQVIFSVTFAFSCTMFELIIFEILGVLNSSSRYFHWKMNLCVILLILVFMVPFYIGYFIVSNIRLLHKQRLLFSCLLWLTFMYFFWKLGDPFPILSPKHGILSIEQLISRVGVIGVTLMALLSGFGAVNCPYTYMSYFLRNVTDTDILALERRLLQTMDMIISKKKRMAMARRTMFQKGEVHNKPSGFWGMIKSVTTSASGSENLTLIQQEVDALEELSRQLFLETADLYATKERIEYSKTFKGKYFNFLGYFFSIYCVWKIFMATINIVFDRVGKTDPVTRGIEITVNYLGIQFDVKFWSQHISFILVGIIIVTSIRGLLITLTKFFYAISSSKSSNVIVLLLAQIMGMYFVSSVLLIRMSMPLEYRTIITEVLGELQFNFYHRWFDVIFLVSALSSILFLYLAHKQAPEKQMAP
UniProt P0C0S5, whole entry: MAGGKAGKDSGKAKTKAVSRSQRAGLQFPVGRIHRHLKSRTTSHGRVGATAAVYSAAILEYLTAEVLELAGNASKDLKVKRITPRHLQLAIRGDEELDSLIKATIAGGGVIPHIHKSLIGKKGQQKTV
UniProt P52657, whole entry: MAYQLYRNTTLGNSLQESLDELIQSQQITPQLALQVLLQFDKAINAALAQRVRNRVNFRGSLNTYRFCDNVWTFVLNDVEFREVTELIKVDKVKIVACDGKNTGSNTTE
UniProt Q8TCT9: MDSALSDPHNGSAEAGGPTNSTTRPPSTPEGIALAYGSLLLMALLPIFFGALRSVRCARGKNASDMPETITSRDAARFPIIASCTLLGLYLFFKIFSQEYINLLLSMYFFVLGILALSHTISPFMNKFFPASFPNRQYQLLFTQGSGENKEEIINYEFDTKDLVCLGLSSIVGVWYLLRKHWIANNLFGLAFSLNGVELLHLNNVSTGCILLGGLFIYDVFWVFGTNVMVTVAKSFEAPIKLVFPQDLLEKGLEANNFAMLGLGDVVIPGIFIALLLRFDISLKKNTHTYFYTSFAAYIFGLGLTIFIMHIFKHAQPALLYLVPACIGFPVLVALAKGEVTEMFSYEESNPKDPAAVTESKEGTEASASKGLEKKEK
UniProt Q9Y5Q8: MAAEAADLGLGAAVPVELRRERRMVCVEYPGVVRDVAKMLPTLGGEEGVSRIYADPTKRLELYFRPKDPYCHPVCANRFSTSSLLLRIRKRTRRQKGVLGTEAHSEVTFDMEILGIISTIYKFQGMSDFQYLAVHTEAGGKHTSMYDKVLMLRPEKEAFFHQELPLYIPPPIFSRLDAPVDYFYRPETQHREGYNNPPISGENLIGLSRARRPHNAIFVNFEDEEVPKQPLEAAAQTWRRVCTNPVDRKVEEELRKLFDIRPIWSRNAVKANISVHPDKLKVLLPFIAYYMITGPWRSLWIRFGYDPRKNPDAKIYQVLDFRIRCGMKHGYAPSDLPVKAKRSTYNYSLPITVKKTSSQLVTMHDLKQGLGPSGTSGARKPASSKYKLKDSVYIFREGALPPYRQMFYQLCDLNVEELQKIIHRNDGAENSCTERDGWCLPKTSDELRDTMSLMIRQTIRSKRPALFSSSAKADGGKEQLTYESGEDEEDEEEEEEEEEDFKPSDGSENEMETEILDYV
UniProt Q8TD30: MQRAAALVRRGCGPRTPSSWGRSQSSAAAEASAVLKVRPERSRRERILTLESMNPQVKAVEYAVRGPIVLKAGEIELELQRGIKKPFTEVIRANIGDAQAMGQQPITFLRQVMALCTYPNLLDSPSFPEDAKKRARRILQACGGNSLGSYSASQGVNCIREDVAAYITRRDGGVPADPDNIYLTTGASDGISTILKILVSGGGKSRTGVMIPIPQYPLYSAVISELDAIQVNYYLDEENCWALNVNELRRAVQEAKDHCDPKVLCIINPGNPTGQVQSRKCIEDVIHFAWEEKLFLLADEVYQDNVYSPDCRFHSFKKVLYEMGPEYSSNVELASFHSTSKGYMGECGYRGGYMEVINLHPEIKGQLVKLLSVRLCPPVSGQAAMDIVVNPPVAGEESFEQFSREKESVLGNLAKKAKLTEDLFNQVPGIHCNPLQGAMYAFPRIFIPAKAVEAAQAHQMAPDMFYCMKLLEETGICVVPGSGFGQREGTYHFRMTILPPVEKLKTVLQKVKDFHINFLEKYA
UniProt P36915, whole entry: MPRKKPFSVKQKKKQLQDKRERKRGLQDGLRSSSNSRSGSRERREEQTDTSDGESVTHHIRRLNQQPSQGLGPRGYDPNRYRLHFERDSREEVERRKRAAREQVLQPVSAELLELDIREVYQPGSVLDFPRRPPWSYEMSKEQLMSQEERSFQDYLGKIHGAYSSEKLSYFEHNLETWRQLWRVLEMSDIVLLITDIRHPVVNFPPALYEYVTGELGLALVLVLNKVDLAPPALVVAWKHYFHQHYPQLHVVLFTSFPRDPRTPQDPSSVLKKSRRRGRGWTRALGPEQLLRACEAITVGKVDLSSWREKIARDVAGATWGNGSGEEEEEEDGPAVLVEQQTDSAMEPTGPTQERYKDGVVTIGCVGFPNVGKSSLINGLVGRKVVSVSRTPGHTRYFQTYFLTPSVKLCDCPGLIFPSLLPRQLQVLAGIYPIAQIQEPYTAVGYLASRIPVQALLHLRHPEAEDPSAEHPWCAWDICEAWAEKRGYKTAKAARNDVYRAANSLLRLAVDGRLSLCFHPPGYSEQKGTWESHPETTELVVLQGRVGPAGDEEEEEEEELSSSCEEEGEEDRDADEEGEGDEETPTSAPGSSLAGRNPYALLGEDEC
UniProt Q9UKD1: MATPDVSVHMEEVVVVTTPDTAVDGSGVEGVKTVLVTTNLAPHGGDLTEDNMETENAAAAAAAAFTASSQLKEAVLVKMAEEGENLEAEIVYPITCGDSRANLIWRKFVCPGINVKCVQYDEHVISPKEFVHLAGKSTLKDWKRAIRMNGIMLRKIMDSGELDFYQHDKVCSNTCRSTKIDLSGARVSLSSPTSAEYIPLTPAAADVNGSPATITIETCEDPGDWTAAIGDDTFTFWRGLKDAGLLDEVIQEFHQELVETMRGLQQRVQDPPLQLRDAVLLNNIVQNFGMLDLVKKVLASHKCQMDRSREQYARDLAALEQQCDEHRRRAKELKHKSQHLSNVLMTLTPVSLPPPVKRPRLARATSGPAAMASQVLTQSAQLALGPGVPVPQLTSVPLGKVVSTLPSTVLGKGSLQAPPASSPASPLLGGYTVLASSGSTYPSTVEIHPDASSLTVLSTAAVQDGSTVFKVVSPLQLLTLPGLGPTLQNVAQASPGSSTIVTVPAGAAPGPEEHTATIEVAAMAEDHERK
UniProt O94925: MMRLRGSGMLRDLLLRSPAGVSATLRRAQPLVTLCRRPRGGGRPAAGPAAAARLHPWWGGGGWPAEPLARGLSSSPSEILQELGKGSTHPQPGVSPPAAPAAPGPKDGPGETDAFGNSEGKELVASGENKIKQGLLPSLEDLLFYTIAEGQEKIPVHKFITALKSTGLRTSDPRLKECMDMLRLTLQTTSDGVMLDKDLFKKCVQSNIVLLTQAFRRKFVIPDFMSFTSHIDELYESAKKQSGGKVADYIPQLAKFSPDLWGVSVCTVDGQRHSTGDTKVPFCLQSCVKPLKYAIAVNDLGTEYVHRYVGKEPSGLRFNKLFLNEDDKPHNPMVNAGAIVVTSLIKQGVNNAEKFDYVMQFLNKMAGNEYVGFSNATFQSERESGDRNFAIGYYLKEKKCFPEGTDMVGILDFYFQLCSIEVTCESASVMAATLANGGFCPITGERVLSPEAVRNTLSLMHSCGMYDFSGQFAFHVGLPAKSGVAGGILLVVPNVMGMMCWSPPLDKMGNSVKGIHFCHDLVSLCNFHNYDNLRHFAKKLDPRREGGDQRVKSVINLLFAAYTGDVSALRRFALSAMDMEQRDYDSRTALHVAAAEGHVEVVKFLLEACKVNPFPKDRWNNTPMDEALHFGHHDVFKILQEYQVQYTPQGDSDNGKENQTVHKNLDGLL

This is one part of the list.

Compound in the experiment: COc1ccc(Cn2ccc3ccc(C(=O)NO)cc32)cc1
As to the kind of experiment: dose-dependent thermal stabilisation call (2D-TPP, DLPTP, 10% FDR) (binary (1 = stabilised)); higher = stabilised by the compound. The note with it: system: HL-60 intact cells; concentration range 0.04-10 µM.
On to HECTD1 (UniProt Q9ULT8), for which the “dose-dependent thermal stabilisation call” value is inactive: 0.

For the target GCN1L1 (UniProt Q92616), the “dose-dependent thermal stabilisation call” value was inactive: 0.

On to HEXB (UniProt P07686), for which the “dose-dependent thermal stabilisation call” value is inactive: 0.

For the target GDPD1 (UniProt Q8N9F7), the “dose-dependent thermal stabilisation call” value was inactive: 0.

Consider GSTK1 (UniProt Q9Y2Q3), for which the “dose-dependent thermal stabilisation call” value was inactive: 0.

Regarding GPI (UniProt P06744), the “dose-dependent thermal stabilisation call” value is inactive: 0.

With GPR89A (UniProt B7ZAQ6), the “dose-dependent thermal stabilisation call” value was inactive: 0.

In the case of H2AFZ (UniProt P0C0S5), the “dose-dependent thermal stabilisation call” value is inactive: 0.

In the case of GPR107 (UniProt Q5VW38), the “dose-dependent thermal stabilisation call” value is inactive: 0.

Consider GRAMD1A (UniProt Q96CP6), for which the “dose-dependent thermal stabilisation call” value was inactive: 0.

For GOLT1B (UniProt Q9Y3E0), the “dose-dependent thermal stabilisation call” value is inactive: 0.

For the target GK5 (UniProt Q6ZS86), the “dose-dependent thermal stabilisation call” value was inactive: 0.

Consider GGA3 (UniProt Q9NZ52), for which the “dose-dependent thermal stabilisation call” value was inactive: 0.

Turning to GTF2A2 (UniProt P52657), the “dose-dependent thermal stabilisation call” value was inactive: 0.

Regarding HDAC6 (UniProt Q9UBN7), the “dose-dependent thermal stabilisation call” value was active: 1.

With GSPT1 (UniProt P15170), the “dose-dependent thermal stabilisation call” value was inactive: 0.

As to HM13 (UniProt Q8TCT9), the “dose-dependent thermal stabilisation call” value is inactive: 0.

As for HGF (UniProt P14210), the “dose-dependent thermal stabilisation call” value is inactive: 0.

On to HEBP2 (UniProt Q9Y5Z4), for which the “dose-dependent thermal stabilisation call” value is inactive: 0.

On to GTF2H2 (UniProt Q13888), for which the “dose-dependent thermal stabilisation call” value was inactive: 0.

Turning to HIST1H2AD (UniProt P20671), the “dose-dependent thermal stabilisation call” value was inactive: 0.

As for GGPS1 (UniProt O95749), the “dose-dependent thermal stabilisation call” value was inactive: 0.

For the target GNAI2 (UniProt P04899), the “dose-dependent thermal stabilisation call” value is inactive: 0.

With GTPBP8 (UniProt Q8N3Z3), the “dose-dependent thermal stabilisation call” value is inactive: 0.

As to GTPBP1 (UniProt O00178), the “dose-dependent thermal stabilisation call” value was inactive: 0.

With GTF3C5 (UniProt Q9Y5Q8), the “dose-dependent thermal stabilisation call” value was inactive: 0.

Take GPT2 (UniProt Q8TD30): the “dose-dependent thermal stabilisation call” value is inactive: 0.

Regarding GNL1 (UniProt P36915), the “dose-dependent thermal stabilisation call” value is inactive: 0.

In the case of GMEB2 (UniProt Q9UKD1), the “dose-dependent thermal stabilisation call” value was inactive: 0.

With HIRIP3 (UniProt Q9BW71), the “dose-dependent thermal stabilisation call” value was inactive: 0.

As for GLRX3 (UniProt O76003), the “dose-dependent thermal stabilisation call” value is inactive: 0.

On to HDGF2, for which the “dose-dependent thermal stabilisation call” value was inactive: 0.

Take HDLBP (UniProt Q00341): the “dose-dependent thermal stabilisation call” value is inactive: 0.

For the target GIT1 (UniProt Q9Y2X7), the “dose-dependent thermal stabilisation call” value was inactive: 0.

GLUL (UniProt P15104): the “dose-dependent thermal stabilisation call” value is inactive: 0.

GUK1 (UniProt Q16774): the “dose-dependent thermal stabilisation call” value was inactive: 0.

Consider GLS (UniProt O94925), for which the “dose-dependent thermal stabilisation call” value was inactive: 0.
